Assay results taken from the supplement of paper PMC10032668.
This is one part of the list. Only hits are listed; about a third recur on repeated control peptides.

Sequences of proteins named here, by UniProt entry; tags and fusion partners are left off.
MPG, P29372, UniProt P29372, whole entry: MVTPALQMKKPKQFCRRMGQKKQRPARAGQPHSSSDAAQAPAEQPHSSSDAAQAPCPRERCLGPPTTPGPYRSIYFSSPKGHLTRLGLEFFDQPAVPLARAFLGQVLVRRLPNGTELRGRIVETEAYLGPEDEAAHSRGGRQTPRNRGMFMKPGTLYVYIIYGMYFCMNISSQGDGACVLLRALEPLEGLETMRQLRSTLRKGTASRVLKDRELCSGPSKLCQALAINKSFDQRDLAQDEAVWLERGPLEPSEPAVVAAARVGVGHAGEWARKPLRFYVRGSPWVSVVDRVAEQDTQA
PSMC6, P62333, UniProt P62333, whole entry: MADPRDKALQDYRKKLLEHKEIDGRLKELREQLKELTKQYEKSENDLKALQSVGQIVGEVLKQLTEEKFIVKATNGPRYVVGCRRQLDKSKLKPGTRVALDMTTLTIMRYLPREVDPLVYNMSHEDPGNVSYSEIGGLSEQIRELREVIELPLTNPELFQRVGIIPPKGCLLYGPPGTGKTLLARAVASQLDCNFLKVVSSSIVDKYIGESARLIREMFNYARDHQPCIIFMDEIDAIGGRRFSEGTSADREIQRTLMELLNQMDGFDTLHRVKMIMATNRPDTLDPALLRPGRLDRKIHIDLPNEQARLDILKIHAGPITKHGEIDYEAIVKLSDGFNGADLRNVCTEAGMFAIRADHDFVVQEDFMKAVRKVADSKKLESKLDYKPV
EIF3G, O75821, UniProt O75821, whole entry: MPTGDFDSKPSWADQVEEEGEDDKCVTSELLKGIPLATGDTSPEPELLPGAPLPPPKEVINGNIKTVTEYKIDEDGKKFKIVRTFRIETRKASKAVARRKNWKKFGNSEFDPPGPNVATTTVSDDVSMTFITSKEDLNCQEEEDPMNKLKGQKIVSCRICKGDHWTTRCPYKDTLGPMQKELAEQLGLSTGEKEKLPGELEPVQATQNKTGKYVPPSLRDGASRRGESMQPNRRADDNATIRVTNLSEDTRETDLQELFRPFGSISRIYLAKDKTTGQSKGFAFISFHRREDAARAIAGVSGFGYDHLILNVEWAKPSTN
IDH1, O75874, UniProt O75874, whole entry: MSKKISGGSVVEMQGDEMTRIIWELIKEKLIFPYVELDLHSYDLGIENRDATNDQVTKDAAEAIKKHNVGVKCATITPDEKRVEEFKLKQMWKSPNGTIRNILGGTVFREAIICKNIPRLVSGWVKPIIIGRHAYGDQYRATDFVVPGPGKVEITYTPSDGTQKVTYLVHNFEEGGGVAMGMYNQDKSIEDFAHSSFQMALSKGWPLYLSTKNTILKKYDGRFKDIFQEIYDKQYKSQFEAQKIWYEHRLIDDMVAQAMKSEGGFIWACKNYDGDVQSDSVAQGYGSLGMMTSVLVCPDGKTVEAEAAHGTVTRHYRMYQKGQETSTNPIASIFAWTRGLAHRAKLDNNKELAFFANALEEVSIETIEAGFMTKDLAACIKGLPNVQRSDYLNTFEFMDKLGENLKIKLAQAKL
NDUFB9, Q9Y6M9, UniProt Q9Y6M9, whole entry: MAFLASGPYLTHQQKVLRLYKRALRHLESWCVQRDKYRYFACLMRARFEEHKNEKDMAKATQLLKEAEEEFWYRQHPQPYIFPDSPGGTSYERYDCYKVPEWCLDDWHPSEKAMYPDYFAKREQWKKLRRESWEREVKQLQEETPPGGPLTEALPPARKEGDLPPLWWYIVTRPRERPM
PDLIM7, Q9NR12, UniProt Q9NR12, whole entry: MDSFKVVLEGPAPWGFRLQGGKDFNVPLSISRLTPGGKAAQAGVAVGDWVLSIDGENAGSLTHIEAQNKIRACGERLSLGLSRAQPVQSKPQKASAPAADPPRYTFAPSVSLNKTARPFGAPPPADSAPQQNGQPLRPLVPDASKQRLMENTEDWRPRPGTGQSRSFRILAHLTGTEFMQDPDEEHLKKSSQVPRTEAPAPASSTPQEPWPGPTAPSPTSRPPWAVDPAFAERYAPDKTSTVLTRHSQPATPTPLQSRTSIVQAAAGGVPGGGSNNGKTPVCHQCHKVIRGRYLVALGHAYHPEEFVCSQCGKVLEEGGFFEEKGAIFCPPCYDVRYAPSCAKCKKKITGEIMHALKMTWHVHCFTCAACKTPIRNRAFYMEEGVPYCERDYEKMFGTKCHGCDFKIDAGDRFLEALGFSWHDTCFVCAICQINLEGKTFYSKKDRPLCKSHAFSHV

Legend:
Assay in all cases: PRISMA enrichment of interactor (LFQ) in peptide spot vs all other peptide spots (log2 fold change); higher = stronger / more specific binding of the interactor to the peptide
[1] = biological target: ABT1, Q9ULW3
Experimental: (§1)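 PRISMA: 15-aa overlapping tiles (offset 8 aa) of 60 microproteins, plus SOS1/GLUT1 control peptides, were spot-synthesized on cellulose membranes in triplicate. Membranes were incubated with benzonase-treated HEK293T lysate, and bound proteins were identified by LC-MS/MS with LFQ. Enrichment is the log2 fold change of each protein in one spot versus all other spots. Only interactors passing the significance cutoff are listed.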

[2] = biological target: FASTKD5, Q7L8L6
Experimental: as §1

[3] = biological target: GRB2, P62993
Experimental: as §1

[4] = biological target: MPG, P29372
Experimental: as §1

[5] = biological target: MRPL13, Q9BYD1
Experimental: as §1

[6] = biological target: PSMC6, P62333
Experimental: as §1

[7] = biological target: RRP36, Q96EU6
Experimental: as §1

[8] = biological target: SF3A1, Q15459
Experimental: as §1

[9] = biological target: SSR1, P43307
Experimental: as §1

[10] = biological target: WDR46, O15213
Experimental: as §1

[11] = biological target: ACAA2, P42765
Experimental: as §1

[12] = biological target: ALDH4A1, P30038
Experimental: as §1

[13] = biological target: ALG6, Q9Y672
Experimental: as §1

[14] = biological target: ATG4B, Q9Y4P1
Experimental: as §1

[15] = biological target: CENPB, P07199
Experimental: as §1

[16] = biological target: CENPV, Q7Z7K6
Experimental: as §1

[17] = biological target: CGN, Q9P2M7
Experimental: as §1

[18] = biological target: CHD4, Q14839
Experimental: as §1

[19] = biological target: CSNK2A2, P19784
Experimental: as §1

[20] = biological target: DDX42, Q86XP3
Experimental: as §1

[21] = biological target: DYNC2H1, Q8NCM8
Experimental: as §1

[22] = biological target: EIF3G, O75821
Experimental: as §1

[23] = biological target: FYTTD1, Q96QD9
Experimental: as §1

[24] = biological target: HNRNPDL, O14979
Experimental: as §1

[25] = biological target: IDH1, O75874
Experimental: as §1

[26] = biological target: MMS19, Q96T76
Experimental: as §1

[27] = biological target: MRPL43, Q8N983
Experimental: as §1

[28] = biological target: MRPL55, Q7Z7F7
Experimental: as §1

[29] = biological target: MRPS10, P82664
Experimental: as §1

[30] = biological target: NDUFB9, Q9Y6M9
Experimental: as §1

[31] = biological target: NUP88, Q99567
Experimental: as §1

[32] = biological target: PDLIM7, Q9NR12
Experimental: as §1

[33] = biological target: PEBP1, P30086
Experimental: as §1

[34] = biological target: POLR2C, P19387
Experimental: as §1

[35] = biological target: PPP1CC, P36873
Experimental: as §1

[36] = biological target: SYNCRIP, O60506
Experimental: as §1

[37] = biological target: TBCD, Q9BTW9
Experimental: as §1

[38] = biological target: YWHAH, Q04917
Experimental: as §1

Binder	PRISMA enrichment of interactor (log2) [1]	PRISMA enrichment of interactor (log2) [2]	PRISMA enrichment of interactor (log2) [3]	PRISMA enrichment of interactor (log2) [4]	PRISMA enrichment of interactor (log2) [5]	PRISMA enrichment of interactor (log2) [6]	PRISMA enrichment of interactor (log2) [7]	PRISMA enrichment of interactor (log2) [8]	PRISMA enrichment of interactor (log2) [9]	PRISMA enrichment of interactor (log2) [10]	PRISMA enrichment of interactor (log2) [11]	PRISMA enrichment of interactor (log2) [12]	PRISMA enrichment of interactor (log2) [13]	PRISMA enrichment of interactor (log2) [14]	PRISMA enrichment of interactor (log2) [15]	PRISMA enrichment of interactor (log2) [16]	PRISMA enrichment of interactor (log2) [17]	PRISMA enrichment of interactor (log2) [18]	PRISMA enrichment of interactor (log2) [19]	PRISMA enrichment of interactor (log2) [20]	PRISMA enrichment of interactor (log2) [21]	PRISMA enrichment of interactor (log2) [22]	PRISMA enrichment of interactor (log2) [23]	PRISMA enrichment of interactor (log2) [24]	PRISMA enrichment of interactor (log2) [25]	PRISMA enrichment of interactor (log2) [26]	PRISMA enrichment of interactor (log2) [27]	PRISMA enrichment of interactor (log2) [28]	PRISMA enrichment of interactor (log2) [29]	PRISMA enrichment of interactor (log2) [30]	PRISMA enrichment of interactor (log2) [31]	PRISMA enrichment of interactor (log2) [32]	PRISMA enrichment of interactor (log2) [33]	PRISMA enrichment of interactor (log2) [34]	PRISMA enrichment of interactor (log2) [35]	PRISMA enrichment of interactor (log2) [36]	PRISMA enrichment of interactor (log2) [37]	PRISMA enrichment of interactor (log2) [38]
RAAAYAFAIRRGVVR [TUG1]	4.28	6.18	5.05	5.16	8.82	5.46	5.21	5.4	7.51	5.3																												
VAFASGVLLGWQANR [MTLN]											5.16	5.78	4.31	4.87	5.54	7.38	5.01	6.2	10.5	7.29	5.45	7.52	4.21	7.91	4.97	4.54	4.45	5.1	5.21	6.55	4.58	5.17	5.59	5.24	4.45	8.27	6.02	8.26
